These results are taken from doi:10.1101/2022.07.21.500812.

Amino acid sequences for entries named in this document (tags omitted). A change or cut given only in a name is not applied to a line headed by its entry. Chains listed by the source or under a name are the forms on record and can include a tag or linker. Residues count along the entry.
UniProt Q8K1S4, residues 26-359: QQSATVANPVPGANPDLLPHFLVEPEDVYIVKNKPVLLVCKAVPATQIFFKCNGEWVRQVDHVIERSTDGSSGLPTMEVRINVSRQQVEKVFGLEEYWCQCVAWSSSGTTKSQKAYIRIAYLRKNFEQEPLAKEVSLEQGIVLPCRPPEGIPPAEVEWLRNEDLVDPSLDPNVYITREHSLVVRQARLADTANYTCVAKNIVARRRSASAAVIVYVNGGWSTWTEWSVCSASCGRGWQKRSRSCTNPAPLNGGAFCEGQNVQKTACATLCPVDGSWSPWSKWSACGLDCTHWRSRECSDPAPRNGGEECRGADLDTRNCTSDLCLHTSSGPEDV
hGPC3^core N241Q (hGPC3^coreUG) (P51654, form named): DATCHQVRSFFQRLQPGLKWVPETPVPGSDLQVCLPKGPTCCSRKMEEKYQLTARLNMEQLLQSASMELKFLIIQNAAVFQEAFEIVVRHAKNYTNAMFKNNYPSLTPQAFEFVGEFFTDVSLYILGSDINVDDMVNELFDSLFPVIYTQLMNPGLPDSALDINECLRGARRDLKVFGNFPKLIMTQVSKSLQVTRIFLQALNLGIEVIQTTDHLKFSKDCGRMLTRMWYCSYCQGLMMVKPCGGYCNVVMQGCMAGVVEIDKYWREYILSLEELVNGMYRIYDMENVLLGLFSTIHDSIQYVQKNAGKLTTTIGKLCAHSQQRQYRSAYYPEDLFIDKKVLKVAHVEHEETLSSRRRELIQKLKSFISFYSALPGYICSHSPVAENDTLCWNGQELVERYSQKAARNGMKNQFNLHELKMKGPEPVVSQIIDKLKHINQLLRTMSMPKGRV

This assay has as its target mouse Unc5A ectodomain (mUnc5A^ecto, residues 1-359) (mouse) (UniProt Q8K1S4). Kind of assay: SPR.

Results are given in words; binding and its absence hold for the method and conditions named.

“hGPC3^core N241Q (hGPC3^coreUG) (from UniProt P51654 32-483) (domain or fragment)”: the binding entry is “no binding”.
